# Source: the supplement of paper PMC6411743
# ± gives the standard deviation of the averaged measurements. Some of the results follow.
# Assays:
# Assay in all cases: NP40-soluble protein abundance relative to vehicle (solubility fold change) (ratio); higher = more soluble protein in presence of GTP
# AARSD1 = biological target: T1, AARSD1 (UniProt Q9BTE6)
# T1 sequence (whole entry): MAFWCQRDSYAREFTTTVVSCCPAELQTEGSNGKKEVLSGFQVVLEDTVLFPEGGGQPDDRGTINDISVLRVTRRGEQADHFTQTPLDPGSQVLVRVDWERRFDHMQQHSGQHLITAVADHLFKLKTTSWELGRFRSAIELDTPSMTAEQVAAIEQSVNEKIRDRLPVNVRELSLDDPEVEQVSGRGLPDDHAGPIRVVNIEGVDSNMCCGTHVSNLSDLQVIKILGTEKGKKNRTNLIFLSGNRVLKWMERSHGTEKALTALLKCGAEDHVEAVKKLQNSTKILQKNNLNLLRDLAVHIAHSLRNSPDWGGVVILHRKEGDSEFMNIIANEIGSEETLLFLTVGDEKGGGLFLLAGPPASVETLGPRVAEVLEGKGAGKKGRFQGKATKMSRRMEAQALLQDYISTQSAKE
# How it was run: (§1)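 In three independent experiments, Jurkat crude lysate made by Dounce homogenisation was treated for 10 min at room temperature and then 3 min at 37 °C with eight concentrations ranging from 0.1 to 10 mM. It was then solubilised with 0.8% NP40 plus benzonase for 60 min at 4 °C and ultracentrifuged. The supernatant was TMT-labelled for LC-MS/MS, and each value is the fold change against the detergent-processed vehicle for the same replicate, using vsn-normalised intensities.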
# CMTM3 = biological target: T2, CMTM3 (UniProt Q96MX0)
# T2 sequence (whole entry): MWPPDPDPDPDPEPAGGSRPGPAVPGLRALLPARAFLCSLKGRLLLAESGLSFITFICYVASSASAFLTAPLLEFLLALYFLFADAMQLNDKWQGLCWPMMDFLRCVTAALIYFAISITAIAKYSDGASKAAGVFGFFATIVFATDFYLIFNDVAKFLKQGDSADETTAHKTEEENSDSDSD
# How it was run: as §1
# DNAJC1 = biological target: T3, DNAJC1 (UniProt Q96KC8)
# T3 sequence (whole entry): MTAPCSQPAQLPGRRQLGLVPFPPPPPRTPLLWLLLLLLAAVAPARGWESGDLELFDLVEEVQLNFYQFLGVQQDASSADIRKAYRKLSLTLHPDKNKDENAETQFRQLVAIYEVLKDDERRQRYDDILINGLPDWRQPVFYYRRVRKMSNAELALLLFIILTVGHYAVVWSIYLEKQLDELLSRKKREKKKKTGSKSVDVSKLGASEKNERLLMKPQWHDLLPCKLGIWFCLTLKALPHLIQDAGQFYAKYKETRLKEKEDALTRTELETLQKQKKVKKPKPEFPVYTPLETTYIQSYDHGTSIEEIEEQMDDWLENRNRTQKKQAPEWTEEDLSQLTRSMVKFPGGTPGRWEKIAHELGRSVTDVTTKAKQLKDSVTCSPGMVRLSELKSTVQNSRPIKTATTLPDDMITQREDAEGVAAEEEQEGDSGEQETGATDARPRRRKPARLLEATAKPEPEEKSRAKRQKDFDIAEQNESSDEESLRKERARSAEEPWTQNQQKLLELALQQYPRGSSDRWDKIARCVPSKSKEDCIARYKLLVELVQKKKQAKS
# How it was run: as §1
# DNAJC2 = biological target: T4, DNAJC2 (UniProt Q99543)
# T4 sequence (whole entry): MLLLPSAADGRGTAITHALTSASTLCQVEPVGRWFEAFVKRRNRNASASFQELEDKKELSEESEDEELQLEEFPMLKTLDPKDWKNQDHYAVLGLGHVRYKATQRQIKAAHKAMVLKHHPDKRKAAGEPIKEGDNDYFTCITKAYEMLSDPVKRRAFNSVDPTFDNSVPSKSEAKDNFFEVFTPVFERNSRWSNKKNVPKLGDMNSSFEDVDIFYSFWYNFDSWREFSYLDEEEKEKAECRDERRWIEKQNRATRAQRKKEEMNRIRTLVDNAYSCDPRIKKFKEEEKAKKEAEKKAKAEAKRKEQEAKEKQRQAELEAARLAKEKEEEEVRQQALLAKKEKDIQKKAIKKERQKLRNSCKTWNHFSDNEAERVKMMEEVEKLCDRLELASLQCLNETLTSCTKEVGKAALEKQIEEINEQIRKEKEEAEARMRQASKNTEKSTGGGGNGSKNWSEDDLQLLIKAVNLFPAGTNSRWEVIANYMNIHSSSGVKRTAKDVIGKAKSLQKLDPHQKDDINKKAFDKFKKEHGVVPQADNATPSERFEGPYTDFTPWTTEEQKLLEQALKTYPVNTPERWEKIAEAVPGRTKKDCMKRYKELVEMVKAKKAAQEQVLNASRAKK
# How it was run: as §1
# EFHD1 = biological target: T5, EFHD1 (UniProt Q9BUP0)
# T5 sequence (whole entry): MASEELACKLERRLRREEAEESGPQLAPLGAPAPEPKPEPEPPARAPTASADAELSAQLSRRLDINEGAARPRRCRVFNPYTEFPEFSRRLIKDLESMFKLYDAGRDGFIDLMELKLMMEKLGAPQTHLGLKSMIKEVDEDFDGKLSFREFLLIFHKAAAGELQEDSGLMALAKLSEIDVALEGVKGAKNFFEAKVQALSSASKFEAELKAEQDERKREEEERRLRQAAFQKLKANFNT
# How it was run: as §1
# FUNDC2 = biological target: T6, FUNDC2 (UniProt Q9BWH2)
# T6 sequence (whole entry): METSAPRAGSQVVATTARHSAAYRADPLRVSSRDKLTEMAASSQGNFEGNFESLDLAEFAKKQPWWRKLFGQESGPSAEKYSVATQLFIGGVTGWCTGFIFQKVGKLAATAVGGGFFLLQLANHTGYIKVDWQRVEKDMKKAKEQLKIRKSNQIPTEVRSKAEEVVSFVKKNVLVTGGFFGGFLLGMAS
# How it was run: as §1
# MNT = biological target: T7, MNT (UniProt Q99583)
# T7 sequence (whole entry): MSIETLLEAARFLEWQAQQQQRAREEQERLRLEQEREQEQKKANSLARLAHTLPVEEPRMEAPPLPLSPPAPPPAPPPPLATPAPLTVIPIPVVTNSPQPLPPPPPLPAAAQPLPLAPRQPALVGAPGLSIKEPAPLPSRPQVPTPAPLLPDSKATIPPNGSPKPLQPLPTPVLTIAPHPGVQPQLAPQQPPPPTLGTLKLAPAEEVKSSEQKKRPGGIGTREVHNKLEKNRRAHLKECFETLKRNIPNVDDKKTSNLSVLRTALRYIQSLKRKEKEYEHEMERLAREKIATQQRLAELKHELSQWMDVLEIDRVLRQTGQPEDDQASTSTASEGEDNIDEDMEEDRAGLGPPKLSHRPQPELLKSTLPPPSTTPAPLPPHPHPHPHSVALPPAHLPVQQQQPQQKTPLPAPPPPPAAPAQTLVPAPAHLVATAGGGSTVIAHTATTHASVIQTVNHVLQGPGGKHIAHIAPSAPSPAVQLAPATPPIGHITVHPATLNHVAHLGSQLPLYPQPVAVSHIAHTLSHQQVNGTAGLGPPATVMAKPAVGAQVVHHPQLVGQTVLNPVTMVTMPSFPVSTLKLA
# How it was run: as §1
structure (smiles),measurement,setting,value
Nc1nc2c(ncn2[C@@H]2O[C@H](COP(=O)(O)OP(=O)(O)OP(=O)(O)O)[C@@H](O)[C@H]2O)c(=O)[nH]1 [guanosine triphosphate],NP40-soluble protein abundance,AARSD1; concentration: 0.1mM,0.992 ± 0.041
same,NP40-soluble protein abundance,AARSD1; concentration: 0.5mM,0.985 ± 0.029
same,NP40-soluble protein abundance,AARSD1; concentration: 1mM,0.942 ± 0.035
same,NP40-soluble protein abundance,AARSD1; concentration: 2mM,0.924 ± 0.032
same,NP40-soluble protein abundance,AARSD1; concentration: 4mM,0.927 ± 0.053
same,NP40-soluble protein abundance,AARSD1; concentration: 6mM,0.9091 ± 0.0021
same,NP40-soluble protein abundance,AARSD1; concentration: 8mM,0.902 ± 0.048
same,NP40-soluble protein abundance,AARSD1; concentration: 10mM,0.904 ± 0.054
same,NP40-soluble protein abundance,CMTM3; concentration: 0.1mM,1.02 ± 0.073
same,NP40-soluble protein abundance,CMTM3; concentration: 0.5mM,0.918 ± 0.049
same,NP40-soluble protein abundance,CMTM3; concentration: 1mM,0.7918 ± 0.0036
same,NP40-soluble protein abundance,CMTM3; concentration: 2mM,0.846 ± 0.034
same,NP40-soluble protein abundance,CMTM3; concentration: 4mM,0.791 ± 0.016
same,NP40-soluble protein abundance,CMTM3; concentration: 6mM,0.694 ± 0.024
same,NP40-soluble protein abundance,CMTM3; concentration: 8mM,0.715 ± 0.099
same,NP40-soluble protein abundance,CMTM3; concentration: 10mM,0.798 ± 0.042
same,NP40-soluble protein abundance,DNAJC1; concentration: 0.1mM,0.999 ± 0.067
same,NP40-soluble protein abundance,DNAJC1; concentration: 0.5mM,0.972 ± 0.073
same,NP40-soluble protein abundance,DNAJC1; concentration: 1mM,0.981 ± 0.078
same,NP40-soluble protein abundance,DNAJC1; concentration: 2mM,0.955 ± 0.11
same,NP40-soluble protein abundance,DNAJC1; concentration: 4mM,0.957 ± 0.12
same,NP40-soluble protein abundance,DNAJC1; concentration: 6mM,0.94 ± 0.052
same,NP40-soluble protein abundance,DNAJC1; concentration: 8mM,0.976 ± 0.019
same,NP40-soluble protein abundance,DNAJC1; concentration: 10mM,0.953 ± 0.093
same,NP40-soluble protein abundance,DNAJC2; concentration: 0.1mM,0.997 ± 0.099
same,NP40-soluble protein abundance,DNAJC2; concentration: 0.5mM,0.949 ± 0.074
same,NP40-soluble protein abundance,DNAJC2; concentration: 1mM,0.988 ± 0.092
same,NP40-soluble protein abundance,DNAJC2; concentration: 2mM,0.942 ± 0.09
same,NP40-soluble protein abundance,DNAJC2; concentration: 4mM,0.925 ± 0.098
same,NP40-soluble protein abundance,DNAJC2; concentration: 6mM,0.923 ± 0.077
same,NP40-soluble protein abundance,DNAJC2; concentration: 8mM,0.946 ± 0.061
same,NP40-soluble protein abundance,DNAJC2; concentration: 10mM,0.934 ± 0.086
same,NP40-soluble protein abundance,EFHD1; concentration: 0.1mM,1.03 ± 0.037
same,NP40-soluble protein abundance,EFHD1; concentration: 0.5mM,0.924 ± 0.022
same,NP40-soluble protein abundance,EFHD1; concentration: 1mM,0.989 ± 0.081
same,NP40-soluble protein abundance,EFHD1; concentration: 2mM,1.04 ± 0.034
same,NP40-soluble protein abundance,EFHD1; concentration: 4mM,1.09 ± 0.23
same,NP40-soluble protein abundance,EFHD1; concentration: 6mM,1.03 ± 0.13
same,NP40-soluble protein abundance,EFHD1; concentration: 8mM,0.929 ± 0.17
same,NP40-soluble protein abundance,EFHD1; concentration: 10mM,1.11 ± 0.076
same,NP40-soluble protein abundance,FUNDC2; concentration: 0.1mM,0.946 ± 0.063
same,NP40-soluble protein abundance,FUNDC2; concentration: 0.5mM,0.868 ± 0.038
same,NP40-soluble protein abundance,FUNDC2; concentration: 1mM,0.903 ± 0.049
same,NP40-soluble protein abundance,FUNDC2; concentration: 2mM,0.879 ± 0.084
same,NP40-soluble protein abundance,FUNDC2; concentration: 4mM,0.853 ± 0.085
same,NP40-soluble protein abundance,FUNDC2; concentration: 6mM,0.868 ± 0.088
same,NP40-soluble protein abundance,FUNDC2; concentration: 8mM,0.844 ± 0.072
same,NP40-soluble protein abundance,FUNDC2; concentration: 10mM,0.832 ± 0.088
same,NP40-soluble protein abundance,MNT; concentration: 0.1mM,0.955 ± 0.016
same,NP40-soluble protein abundance,MNT; concentration: 0.5mM,0.954 ± 0.091
same,NP40-soluble protein abundance,MNT; concentration: 1mM,0.951 ± 0.065
same,NP40-soluble protein abundance,MNT; concentration: 2mM,0.931 ± 0.088

# Reprinted at random: 2 entries already listed, in no set order.
structure (smiles),measurement,setting,value
Nc1nc2c(ncn2[C@@H]2O[C@H](COP(=O)(O)OP(=O)(O)OP(=O)(O)O)[C@@H](O)[C@H]2O)c(=O)[nH]1 [guanosine triphosphate],NP40-soluble protein abundance,CMTM3; concentration: 6mM,0.694 ± 0.024
same,NP40-soluble protein abundance,DNAJC2; concentration: 0.5mM,0.949 ± 0.074
